Test results from the supplement of paper PMC4604168 (melanoma cell lines).
This is one part of the list. Repeats are few or missing, and single values can be far off.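 Cells were imaged in 1,536-well plates, and nuclei stained with an antibody against cleaved PARP were counted against all DNA-stained nuclei to give the apoptosis fraction. Screening doses were chosen to leave most cells alive, and resting and induced cleaved-PARP levels differ strongly between cell lines.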

Assays:
Assay in all cases: cleaved PARP positive nuclei fraction relative to DMSO control; melanoma cells; higher = more apoptosis
Details in all cases: library dose: low library concentration; 72 h
MZ2-MEL = tested on: MZ2-MEL
MeWo = tested on: MeWo
RPMI7951 = tested on: RPMI7951
RVH-421 = tested on: RVH-421
SkMel28 = tested on: SkMel28
SkMel2 = tested on: SkMel2
SkMel30 = tested on: SkMel30
UACC62 = tested on: UACC62
WM115 = tested on: WM115
WM1716 = tested on: WM1716
WM1745 = tested on: WM1745
WM3526 = tested on: WM3526
WM3619 = tested on: WM3619
WM451Lu = tested on: WM451Lu

C[C@@H](N)c1ccc(C(=O)Nc2ccnc3[nH]ccc23)cc1 + Clc1ccc(Nc2nnc(Cc3ccncc3)c3ccccc23)cc1 [vatalanib] (first compound 0.4 µM, partner dose 2 µM)
cleaved PARP positive nuclei fraction (MZ2-MEL): 157% | cleaved PARP positive nuclei fraction (MeWo): 300% | cleaved PARP positive nuclei fraction (RPMI7951): 122% | cleaved PARP positive nuclei fraction (RVH-421): 279% | cleaved PARP positive nuclei fraction (SkMel28): 85.6% | cleaved PARP positive nuclei fraction (SkMel2): 102% | cleaved PARP positive nuclei fraction (SkMel30): 43.9% | cleaved PARP positive nuclei fraction (UACC62): 98.8% | cleaved PARP positive nuclei fraction (WM115): 123% | cleaved PARP positive nuclei fraction (WM1716): 180% | cleaved PARP positive nuclei fraction (WM1745): 117% | cleaved PARP positive nuclei fraction (WM3526): 55.6% | cleaved PARP positive nuclei fraction (WM3619): 148% | cleaved PARP positive nuclei fraction (WM451Lu): 296%

COc1ccc(C2=N[C@@H](c3ccc(Cl)cc3)[C@@H](c3ccc(Cl)cc3)N2C(=O)N2CCNC(=O)C2)c(OC(C)C)c1 [Nutlin-3] + C[C@]1(c2nc3c(C(N)=O)cccc3[nH]2)CCCN1 [Veliparib] (first compound 0.1 µM, partner dose 1.4 µM)
cleaved PARP positive nuclei fraction (MZ2-MEL): 127% | cleaved PARP positive nuclei fraction (MeWo): 98.9% | cleaved PARP positive nuclei fraction (RPMI7951): 47.6% | cleaved PARP positive nuclei fraction (RVH-421): 111% | cleaved PARP positive nuclei fraction (SkMel28): 47% | cleaved PARP positive nuclei fraction (SkMel2): 132% | cleaved PARP positive nuclei fraction (SkMel30): 62.5% | cleaved PARP positive nuclei fraction (UACC62): 191% | cleaved PARP positive nuclei fraction (WM115): 232% | cleaved PARP positive nuclei fraction (WM1716): 88.6% | cleaved PARP positive nuclei fraction (WM1745): 89.4% | cleaved PARP positive nuclei fraction (WM3526): 82.1% | cleaved PARP positive nuclei fraction (WM3619): 121% | cleaved PARP positive nuclei fraction (WM451Lu): 101%

Cn1sc(=O)n(Cc2ccccc2)c1=O + NC1(c2ccc(-c3nc4ccn5c(=O)[nH]nc5c4cc3-c3ccccc3)cc2)CCC1 [MK2206] (first compound 0.4 µM, partner dose 0.4 µM)
cleaved PARP positive nuclei fraction (MZ2-MEL): 81.1% | cleaved PARP positive nuclei fraction (MeWo): 54.7% | cleaved PARP positive nuclei fraction (RPMI7951): 47% | cleaved PARP positive nuclei fraction (RVH-421): 49.9% | cleaved PARP positive nuclei fraction (SkMel28): 78.9% | cleaved PARP positive nuclei fraction (SkMel2): 46.1% | cleaved PARP positive nuclei fraction (SkMel30): 114% | cleaved PARP positive nuclei fraction (UACC62): 182% | cleaved PARP positive nuclei fraction (WM115): 221% | cleaved PARP positive nuclei fraction (WM1716): 91.1% | cleaved PARP positive nuclei fraction (WM1745): 85.8% | cleaved PARP positive nuclei fraction (WM3526): 284% | cleaved PARP positive nuclei fraction (WM3619): 108% | cleaved PARP positive nuclei fraction (WM451Lu): 111%

CN(c1ncccc1CNc1nc(Nc2ccc3c(c2)CC(=O)N3)ncc1C(F)(F)F)S(C)(=O)=O + CCCS(=O)(=O)Nc1ccc(F)c(C(=O)c2c[nH]c3ncc(Cl)cc23)c1F [PLX4720] (first compound 0.08 µM, partner dose 0.08 µM)
cleaved PARP positive nuclei fraction (MZ2-MEL): 104% | cleaved PARP positive nuclei fraction (MeWo): 129% | cleaved PARP positive nuclei fraction (RPMI7951): 45.3% | cleaved PARP positive nuclei fraction (RVH-421): 76% | cleaved PARP positive nuclei fraction (SkMel28): 80.2% | cleaved PARP positive nuclei fraction (SkMel2): 94.2% | cleaved PARP positive nuclei fraction (SkMel30): 96.9% | cleaved PARP positive nuclei fraction (UACC62): 124% | cleaved PARP positive nuclei fraction (WM115): 50.4% | cleaved PARP positive nuclei fraction (WM1716): 144% | cleaved PARP positive nuclei fraction (WM1745): 110% | cleaved PARP positive nuclei fraction (WM3526): 44.1% | cleaved PARP positive nuclei fraction (WM3619): 93.4% | cleaved PARP positive nuclei fraction (WM451Lu): 95.4%

CCN(CC)CCNC(=O)c1c(C)[nH]c(/C=C2\C(=O)Nc3ccc(F)cc32)c1C [sunitinib] + Cn1c(Nc2ccc(C(F)(F)F)cc2)nc2cc(Oc3ccnc(-c4ncc(C(F)(F)F)[nH]4)c3)ccc21 [CHIR265] (first compound 0.4 µM, partner dose 0.08 µM)
cleaved PARP positive nuclei fraction (MZ2-MEL): 72.7% | cleaved PARP positive nuclei fraction (MeWo): 249% | cleaved PARP positive nuclei fraction (RPMI7951): 96.9% | cleaved PARP positive nuclei fraction (RVH-421): 196% | cleaved PARP positive nuclei fraction (SkMel28): 394% | cleaved PARP positive nuclei fraction (SkMel2): 43.6% | cleaved PARP positive nuclei fraction (SkMel30): 119% | cleaved PARP positive nuclei fraction (UACC62): 303% | cleaved PARP positive nuclei fraction (WM115): 491% | cleaved PARP positive nuclei fraction (WM1716): 66.2% | cleaved PARP positive nuclei fraction (WM1745): 155% | cleaved PARP positive nuclei fraction (WM3526): 89.8% | cleaved PARP positive nuclei fraction (WM3619): 73.8% | cleaved PARP positive nuclei fraction (WM451Lu): 40%

CS(=O)(=O)c1ccc(C(=O)Nc2ccc(Cl)c(-c3ccccn3)c2)c(Cl)c1 [vismodegib] + COc1ccc(Cl)c(Nc2nc3ccccc3nc2NS(=O)(=O)c2cccc(NC(=O)C(C)(C)N)c2)c1 [XL147] (first compound 1 µM, partner dose 0.8 µM)
cleaved PARP positive nuclei fraction (MZ2-MEL): 161% | cleaved PARP positive nuclei fraction (MeWo): 46.1% | cleaved PARP positive nuclei fraction (RPMI7951): 88.2% | cleaved PARP positive nuclei fraction (RVH-421): 98% | cleaved PARP positive nuclei fraction (SkMel28): 89.5% | cleaved PARP positive nuclei fraction (SkMel2): 23.6% | cleaved PARP positive nuclei fraction (SkMel30): 57.6% | cleaved PARP positive nuclei fraction (UACC62): 94.5% | cleaved PARP positive nuclei fraction (WM115): 94.1% | cleaved PARP positive nuclei fraction (WM1716): 242% | cleaved PARP positive nuclei fraction (WM1745): 91% | cleaved PARP positive nuclei fraction (WM3526): 45.7% | cleaved PARP positive nuclei fraction (WM3619): 206% | cleaved PARP positive nuclei fraction (WM451Lu): 40.4%

C[C@@H](N)c1ccc(C(=O)Nc2ccnc3[nH]ccc23)cc1 + Cc1cc(Nc2cc(N3CCN(C)CC3)nc(/C=C/c3ccccc3)n2)n[nH]1 [ENMD2076] (first compound 0.4 µM, partner dose 0.04 µM)
cleaved PARP positive nuclei fraction (MZ2-MEL): 145% | cleaved PARP positive nuclei fraction (MeWo): 186% | cleaved PARP positive nuclei fraction (RPMI7951): 95.2% | cleaved PARP positive nuclei fraction (RVH-421): 47.8% | cleaved PARP positive nuclei fraction (SkMel28): 37.8% | cleaved PARP positive nuclei fraction (SkMel2): 101% | cleaved PARP positive nuclei fraction (SkMel30): 60.7% | cleaved PARP positive nuclei fraction (UACC62): 238% | cleaved PARP positive nuclei fraction (WM115): 29.8% | cleaved PARP positive nuclei fraction (WM1716): 52.9% | cleaved PARP positive nuclei fraction (WM1745): 153% | cleaved PARP positive nuclei fraction (WM3526): 73% | cleaved PARP positive nuclei fraction (WM3619): 96.3% | cleaved PARP positive nuclei fraction (WM451Lu): 242%

COc1ccc(C2=N[C@@H](c3ccc(Cl)cc3)[C@@H](c3ccc(Cl)cc3)N2C(=O)N2CCNC(=O)C2)c(OC(C)C)c1 [Nutlin-3] + Nc1ccn([C@@H]2O[C@H](CO)[C@@H](O)C2(F)F)c(=O)n1 [gemcitabine] (first compound 0.1 µM, partner dose 0.0004 µM)
cleaved PARP positive nuclei fraction (MZ2-MEL): 65.9% | cleaved PARP positive nuclei fraction (MeWo): 84.2% | cleaved PARP positive nuclei fraction (RPMI7951): 64% | cleaved PARP positive nuclei fraction (RVH-421): 79.6% | cleaved PARP positive nuclei fraction (SkMel28): 138% | cleaved PARP positive nuclei fraction (SkMel2): 152% | cleaved PARP positive nuclei fraction (SkMel30): 42.6% | cleaved PARP positive nuclei fraction (UACC62): 130% | cleaved PARP positive nuclei fraction (WM115): 45.4% | cleaved PARP positive nuclei fraction (WM1716): 105% | cleaved PARP positive nuclei fraction (WM1745): 118% | cleaved PARP positive nuclei fraction (WM3526): 30.5% | cleaved PARP positive nuclei fraction (WM3619): 135% | cleaved PARP positive nuclei fraction (WM451Lu): 79.1%

CC1(C)CCC(c2ccc(Cl)cc2)=C(CN2CCN(c3ccc(C(=O)NS(=O)(=O)c4ccc(N[C@H](CCN5CCOCC5)CSc5ccccc5)c(S(=O)(=O)C(F)(F)F)c4)cc3)CC2)C1 + NC1(c2ccc(-c3nc4ccn5c(=O)[nH]nc5c4cc3-c3ccccc3)cc2)CCC1 [MK2206] (first compound 0.4 µM, partner dose 0.4 µM)
cleaved PARP positive nuclei fraction (MZ2-MEL): 321% | cleaved PARP positive nuclei fraction (MeWo): 348% | cleaved PARP positive nuclei fraction (RPMI7951): 616% | cleaved PARP positive nuclei fraction (RVH-421): 89.1% | cleaved PARP positive nuclei fraction (SkMel28): 63.2% | cleaved PARP positive nuclei fraction (SkMel2): 166% | cleaved PARP positive nuclei fraction (SkMel30): 229% | cleaved PARP positive nuclei fraction (UACC62): 109% | cleaved PARP positive nuclei fraction (WM115): 849% | cleaved PARP positive nuclei fraction (WM1716): 425% | cleaved PARP positive nuclei fraction (WM1745): 2490% | cleaved PARP positive nuclei fraction (WM3526): 107% | cleaved PARP positive nuclei fraction (WM3619): 133% | cleaved PARP positive nuclei fraction (WM451Lu): 214%
